# Test results: PubChem BioAssay AID2417 (National Center for Advancing Translational Sciences (NCATS), 2010)
# Out of some 140,000 compounds screened, about 4,300 (3.1%) were called active. This list was built around the results that the source calls inconclusive (neither active nor inactive); the mix of calls is not that of the screen.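 The calls were made as follows: active = readout at or below -70, meaning at least 70% loss of cells showing the perinucleolar compartment, a nuclear body marking cancer cells; inconclusive = readout between -30 and a set limit; inactive = the rest.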
# Test: High Content Assay for Compounds that inhibit the Assembly of the Perinucleolar Compartment;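 also: plate controls were DMSO wells for no effect and camptothecin positive control wells for full effect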
# Conditions: PC3M PTB-GFP, PNC prevalence imaging, 16 h; at 10 µM; stronger effect = lower value
# How it was run: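 PC3M cells stably expressing PTB-GFP, 750–1000 cells/well, treated 16 h at 37 °C with compound (23 nl of library stock), in duplicate. After paraformaldehyde fixation and Hoechst stain, imaged at 20x; PNC prevalence scored by image analysis.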
row,SMILES,"activity change (PNC), negative = inhibition"
1,CCOc1ccc(Nc2nc(Cc3nnc(SCC(=O)c4ccc(C)cc4)o3)cs2)cc1,inconclusive: -35.7%
2,CCC(C(=O)NC(C)CCc1ccco1)n1nc(C)n2c(cc3occc32)c1=O (configuration not stated),active: -100%
3,Cc1ccc(CN2CC34C=CC(O3)C(C(=O)NCc3ccco3)C4C2=O)cc1 (configuration not stated),inconclusive: -51.8%
4,CCN1/C(=C/c2ccc3ccc(C)cc3[n+]2CC)Sc2ccccc21,inconclusive: -61.4%
5,O=C1Cn2c(nc3ccccc32)N1c1ccccc1F,active: -102%
6,COC(=O)CNC(c1ccccc1)c1cc(C)ccc1NC(=O)CNC(=O)OCc1ccccc1 (configuration not stated),inconclusive: -48%
7,O=C(CN1C(=O)CC(c2ccco2)Sc2ccccc21)NCC1CCCO1 (configuration not stated),inactive: 26.9%
8,CCN(CC)CCn1cnc2c([nH]c3cccc(OC)c32)c1=O,inactive: 30%
9,CCCCC(=O)Nc1ccc(C(=O)NNC(=O)c2ccc(C)c(Br)c2)cc1,inconclusive: -52.5%
10,O=C(c1cccs1)N1CCN(C/C=C/c2ccccc2)CC1,inactive: 24.5%
11,CSc1nnc(-c2cccs2)n1-c1ccccc1,inconclusive: -54.9%
12,Cc1ccc(C(=O)NC(=S)Nc2ccc(S(=O)(=O)N(C)c3ccccc3)cc2)cc1,inconclusive: -40.7%
13,COc1ccccc1NS(=O)(=O)c1cccc(NC(=O)c2ccc3ccccc3n2)c1,inconclusive: -58.7%
14,COc1ccc(CNC(=O)CSc2nnc(Cn3nnc4ccccc43)n2C)cc1,inactive: 7.2%
15,CN(c1ccccc1)S(=O)(=O)c1cccc(NC(=O)CC(C)(C)C)c1,inactive: 72.7%
16,O=C(CCSc1ccccc1)Nc1ccc(S(=O)(=O)N2CCOCC2)cc1,inconclusive: -61.7%
17,O=C(COC(=O)/C=C/c1cccc(Cl)c1)Nc1ccccc1-c1ccccc1,inconclusive: -42.4%
18,O=C(Nc1nccs1)c1ccc(Br)o1,active: -100%
19,CCc1cc(C(=O)Cc2cnn(-c3ccccc3)c2)c(O)cc1O,inactive: 13.8%

# Molecules listed so far with a halogen, in the order listed:
row,SMILES,"activity change (PNC), negative = inhibition"
5,O=C1Cn2c(nc3ccccc32)N1c1ccccc1F,active: -102%
9,CCCCC(=O)Nc1ccc(C(=O)NNC(=O)c2ccc(C)c(Br)c2)cc1,inconclusive: -52.5%
17,O=C(COC(=O)/C=C/c1cccc(Cl)c1)Nc1ccccc1-c1ccccc1,inconclusive: -42.4%
18,O=C(Nc1nccs1)c1ccc(Br)o1,active: -100%

# More structures follow:

row,SMILES,"activity change (PNC), negative = inhibition"
1,C/C(=N/NC(=O)CSc1ccccn1)c1ccc([N+](=O)[O-])cc1,inconclusive: -65.4%
2,COc1cccc(CNC(=O)C(=O)NCC(c2ccco2)N2CCOCC2)c1 (configuration not stated),inactive: -21.3%
3,CCOC(=O)c1sc2nc(SCC#N)n(CCCN3CCCC3=O)c(=O)c2c1C,inconclusive: -36.1%
4,O=C(CCCc1nc(-c2ccccc2Cl)no1)NC1CCCCC1,inconclusive: -34.2%
5,Cc1cc(NC(=O)/C(C#N)=C/c2ccco2)n(-c2ccccc2)n1,inconclusive: -41.9%
6,Cc1onc(-c2ccccc2Cl)c1C(=O)N1CCCc2ccccc21,inconclusive: -30.6%
7,CC(=O)Nc1ccc(S(=O)(=O)N2CCN(CCCOc3cc(C)ccc3C)CC2)cc1,inconclusive: -42%
8,O=C(Cn1cnc2c(cnn2-c2ccccc2)c1=O)N1CCCc2ccccc21,inconclusive: -38.8%
9,CN(C)c1ccc(C2N(c3ccc(F)cc3)C(=O)C3CCCN32)cc1 (configuration not stated),inactive: -4.18%
10,COc1cccc(C(=O)/C=C/Nc2ccc(S(=O)(=O)Nc3onc(C)c3C)cc2)c1,inconclusive: -31.2%
11,COc1ccccc1N1CCN(C(=O)CSc2nc3ccccc3o2)CC1,active: -81.9%
12,O=C(NCc1ccc2c(c1)OCO2)C1(S(=O)(=O)c2ccccc2)CC1,inconclusive: -34.4%
13,CSc1cccc(NC(=O)CN2C(=O)c3ccccc3S2(=O)=O)c1,inactive: 45.3%
14,COCCNC(=O)COC(=O)/C=C/c1c(C)nn(Cc2ccc(Cl)cc2Cl)c1Cl,inconclusive: -55.3%
15,O=C(CN1CCSCC1)N1CCc2[nH]c3ccc(Br)cc3c2C1,inconclusive: -42.7%
16,CC(=O)OCC(=O)c1ccc2ccn(C(C)=O)c2c1,active: -100%
17,CCc1nnc(N2C(=O)c3ccc(Oc4ccc([N+](=O)[O-])cc4)cc3C2=O)s1,inactive: -17%
18,CCCCCCc1ccc(OCC(=O)OC)cc1OCC(=O)OC,inconclusive: -62%
19,CC(=O)Nc1cc(NC(C)=O)c(CC(C)C)s1,inconclusive: -50.7%

row,SMILES,"activity change (PNC), negative = inhibition"
1,O=C(O)c1ccc(S(=O)(=O)c2ccc3c(c2)C(=O)N(CC2CCCO2)C3=O)cc1 (configuration not stated),active: -100%
2,CC1CCN(S(=O)(=O)c2ccc3c(c2)c(=O)c(C(=O)NC2CCCC2)cn3C)CC1,inactive: -19.7%
3,CC(C)C(NC(=O)CN1C(=O)c2ccccc2S1(=O)=O)C(C)C,inconclusive: -44.5%
4,O=C(Nc1cccc(C(F)(F)F)c1)C1CCN(S(=O)(=O)c2cnc[nH]2)CC1,inconclusive: -45.4%
5,O=C(NCc1ccco1)C(c1ccc(F)cc1)N(CC1CCCO1)C(=O)Cn1nnc2ccccc21 (configuration not stated),inconclusive: -38.9%
6,O=C(CN1C(=O)C2(OCCO2)c2ccccc21)c1ccc(F)cc1,inconclusive: -47.7%
7,Cc1cc(OCCn2cnc3ccccc3c2=O)ccc1[N+](=O)[O-],inconclusive: -77.7%
8,C=CCOC(=O)C1=C(C)Nc2nc3ccccc3n2C1c1ccncc1 (configuration not stated),inconclusive: -40.4%
9,O=C(NCC1COc2ccccc2O1)C1CCCN(S(=O)(=O)c2cccc3cccnc23)C1 (configuration not stated),inconclusive: -42.3%
10,O=C(O)c1cnc2ccccc2n1,inactive: 22.1%
11,COC(=O)c1cc(COC(=O)c2ccc3ccccc3n2)oc1C,inconclusive: -47.3%
12,O=C(/C=C\Nc1cccc(F)c1)c1cccs1,inactive: 16.8%
13,N#Cc1cnn(CC2CCCCC2)c1N,active: -97.1%
14,O=C(COC(=O)Cc1cn2ccsc2n1)Nc1nc2ccccc2s1,active: -100%
15,CCC(=O)Nc1cccc(NC(=O)c2cccc([N+](=O)[O-])c2)c1,inconclusive: -30.3%
16,Cc1ccc(NC(=O)N2CCN(c3ccccn3)CC2)cc1,inconclusive: -78.6%
17,COCCn1nnnc1C(c1cccc(C#N)c1)N1CCCCCC1 (configuration not stated),inconclusive: -31.3%
18,C=CCN1C(=O)/C(=C\C=C2\N(C)c3ccccc3C2(C)C)SC1=S,inconclusive: -56.4%
19,O=C(NCCCn1ccnc1)C(=O)NCC(c1cccnc1)N1CCN(c2ccccc2)CC1 (configuration not stated),inconclusive: -79%
